The text below walks through data of the supplement of paper PMC9135407.

Structures are written as SMILES. “And” between values parts separate entries of the source, which are not always exact repeats. Equal values may be shown once. Where a name gives a salt, the structure may show the parent alone. ± gives the standard deviation of the averaged measurements. The list shows a part of the results. Part of the spread comes from offsets between plates or batches.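 Primary human stellate myofibroblasts activated in culture; inactivation shown by regained lipid droplets. Readout: fraction of Hoechst-counted cells exceeding a per-plate Bodipy threshold, duplicate wells, each plate with DMSO negative and nortriptyline positive controls. Hits: control-normalized score beyond the plate's top-tenth-percentile nortriptyline wells, or among its three best wells. Final well concentrations unstated.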

The assay concerns primary human hepatic stellate cells (donor 1). The assay can be described thus: percent Bodipy-positive cells; higher = more lipid droplet accumulation. The following applies: 48 h.
[1] abbreviates: library stock concentration: 3.33 mM.
The mark [2] stands for this setting: library stock concentration: 10 mM.
Setting [3] is: library stock concentration: 6.3 mM.
Where [4] appears, read: library stock concentration: 1 mM.

As for `C1N2CN3CN1CN(C2)C3` [Methenamine], the “percent Bodipy-positive cells” value reads like this: under setting [1], 13.5 ± 8.9%; under setting [2], 34% and 15.8%; (library stock concentration: 14.3 mM) 4.25 ± 0.7%.
As for `CCCCCN(C)CCC(O)(P(=O)(O)O)P(=O)(O)O` [Ibandronate sodium], the “percent Bodipy-positive cells” value under setting [2] was 16.6 ± 0.87%.
Turning to `CCCCCN(C)CCC(O)(P(=O)(O)O)P(=O)(O)O` [Ibandronate], the “percent Bodipy-positive cells” value under setting [3] worked out at 7.21 ± 1.3%.
Consider `C=C(C)[C@@H]1CC[C@]2(C(=O)O)CC[C@]3(C)[C@H](CC[C@@H]4[C@@]5(C)CC[C@H](O)C(C)(C)[C@@H]5CC[C@]43C)[C@@H]12` [Betulinic acid], for which the “percent Bodipy-positive cells” value stood at 20.2 ± 6.9%. Also, the “percent Bodipy-positive cells” value under setting [1] came out at 6.97 ± 2.6%. Further, the “percent Bodipy-positive cells” value under setting [2] worked out at 37.7 ± 2.2%. Under “library stock concentration: 10.9 mM”, the “percent Bodipy-positive cells” value amounted to 38.7 ± 11%.
Regarding `Nc1nnc(Sc2ncc([N+](=O)[O-])s2)s1`, the “percent Bodipy-positive cells” value under setting [2] amounted to 41.3 ± 0.85%.
Still for that read-out and setting: the figure for `CN(C)c1cnccn1` is 32.3 ± 6.9%.
As to `CCCCCCCC/C=C\C/C=C\C/C=C\CCCC(=O)NCCO` [5(Z),8(Z),11(Z)-Eicosatrienoic Acid Ethanolamide], under setting [4], the “percent Bodipy-positive cells” value was 11.5 ± 1.8%.
The same measure, in the same setting: the figure for `CCCCCCCC/C=C\C/C=C\C/C=C\CCCC(=O)NCCO` [Mead ethanolamide] is 7.35 ± 1.6%.
Consider `CC1(C)CCC(NC(=O)[C@@H](N)CCC(=O)O)CC1`, for which the “percent Bodipy-positive cells” value under setting [2] came to 31.2 ± 1.7%.
On to `Cl.Cl.O=C(NCCCN1CCC2(CC1)OCc1ccccc12)[C@H]1CCCN1Cc1ccccc1`, for which the “percent Bodipy-positive cells” value under setting [2] was determined as 69.3 ± 11%.
Regarding `O=C(O)C(Cc1ccccc1[N+](=O)[O-])=NNc1nc(-c2ccc(Cl)c(Cl)c2)cs1`, the “percent Bodipy-positive cells” value under setting [1] stood at 20.5 ± 1.1% and the “percent Bodipy-positive cells” value under setting [2] is 26.8 ± 12%.
Turning to `O=C(O)C1CCNCC1` [Isonipecotic acid], the “percent Bodipy-positive cells” value under setting [2] is 41.8 ± 12%.
Consider `CC(=O)OCC(=O)NCCCOc1cccc(CN2CCCCC2)c1` [Roxatidine acetate HCl], for which the “percent Bodipy-positive cells” value (library stock concentration: 5.7 mM) was 4.94 ± 3.4%.
Consider `CC(=O)OCC(=O)NCCCOc1cccc(CN2CCCCC2)c1` [Roxatidine Acetate HCl], for which the “percent Bodipy-positive cells” value amounted to 25.3 ± 0.85%. For the same compound, the “percent Bodipy-positive cells” value under setting [1] is 5.88 ± 1%. Moreover, under setting [2], the “percent Bodipy-positive cells” value is 15.2 ± 11%.
`CC(=O)OCC(=O)NCCCOc1cccc(CN2CCCCC2)c1`: the “percent Bodipy-positive cells” value under setting [2] was 10.1% and 25%.
As to `CS(=O)(=O)c1ccc(-c2nc(-c3ccc(F)cc3)c(-c3ccncc3)[nH]2)cc1`, the “percent Bodipy-positive cells” value under setting [1] was 16.2 ± 5.8%.
As for `CCn1cc(C(=O)O)c(=O)c2cc(F)c(N3CCNCC3)nc21` [Enoxacin], the “percent Bodipy-positive cells” value under setting [1] came out at 8.57 ± 3.3%; the “percent Bodipy-positive cells” value (library stock concentration: 6.2 mM) is 8.49% and 16.2%.
Consider `CN(C)CC/C=C1/c2ccccc2COc2ccccc21.Cl` [Doxepin hydrochloride], for which the “percent Bodipy-positive cells” value under setting [3] came to 77.9 ± 6.2%.
Take `CCCC[C@@H](C)/C=C(C)/C=C(\C)C(=O)NC1=C[C@@](O)(/C=C/C=C/C=C/C(=O)NC2=C(O)CCC2=O)[C@@H]2O[C@@H]2C1=O` [Manumycin A]: the “percent Bodipy-positive cells” value (library stock concentration: 9.1 mM) was found to be 99.43 ± 0.8%.
For `C[C@H](NCc1ccc(OCc2cccc(F)c2)cc1)C(N)=O` [Safinamide Mesylate], the “percent Bodipy-positive cells” value stood at 13.2 ± 4.8% under setting [1] and 37.4 ± 6.9% under setting [2].
As for `CC1(C)CCC=[N+]1[O-]` [5,5-Dimethyl-1-pyrroline-N-oxide], the “percent Bodipy-positive cells” value under setting [2] stood at 36.8 ± 23%.
For `CCCCCC=CCC=CCC=CCC=CCCCC(=O)SCC(O)CO` (stereo unspecified) [Arachidonoyl-1-thio-Glycerol], under setting [4], the “percent Bodipy-positive cells” value is 7.56 ± 0.45%.
Take `OC[C@@H](O)[C@@H](O)[C@H](O)[C@H](O)CO` [D-Mannitol]: the “percent Bodipy-positive cells” value is, setting by setting: under setting [1], 4.67 ± 2.6%; under setting [2], 15.8 ± 4.9%.
Turning to `OC[C@@H](O)[C@@H](O)[C@H](O)[C@H](O)CO` [Mannitol], the “percent Bodipy-positive cells” value (library stock concentration: 11 mM) turned out to be 1.83 ± 0.98%.
As to `C=CCc1ccc(O)c(OC)c1` [Eugenol], the “percent Bodipy-positive cells” value is, setting by setting: under setting [2], 8.98 ± 3.8%; (library stock concentration: 12.2 mM) 3.52 ± 2.2%.
As to `COc1cc2c(Nc3ccc(NC(=O)c4ccccc4)cc3)ncnc2cc1OCCCN1CCOCC1`, the “percent Bodipy-positive cells” value under setting [1] stood at 97.8 ± 0.45% and the “percent Bodipy-positive cells” value under setting [2] came to 99.017 ± 0.099%.
On to `O=C1OC(c2ccc(O)cc2)(c2ccc(O)cc2)c2ccccc21` [Phenolphthalein], for which the “percent Bodipy-positive cells” value reads like this: under setting [3], 2.89 ± 0.96%; under setting [2], 11.4 ± 2.1%.
As to `COCCOc1nc(-c2ccc(Cl)c(Cl)c2)n(-c2ccc(NC(=O)CCl)cc2)n1` [MI-2 (MALT1 inhibitor)], the “percent Bodipy-positive cells” value reads like this: under setting [1], 100%; under setting [2], 100%.
As for `COc1cc(C)c(Sc2cnc(NC(=O)c3ccc(CNC(C)C(C)C)cc3)s2)cc1C(=O)N1CCN(C(C)=O)CC1` (stereo unspecified), under setting [2], the “percent Bodipy-positive cells” value came out at 82 ± 4.9%.
`CC(=O)N[C@@H](Cc1c[nH]c2ccccc12)C(=O)O` [Acetyltryptophan]: the “percent Bodipy-positive cells” value under setting [2] was determined as 36.4 ± 18%.
Still for that read-out and setting: the figure for `Oc1ccc(C2CNCCc3c2cc(O)c(O)c3Cl)cc1` (stereo unspecified) [Fenoldopam bromide] is 25.2 ± 12%.
Still for that read-out and setting: the figure for `Oc1ccc(C2CNCCc3c2cc(O)c(O)c3Cl)cc1` (stereo unspecified) [Fenoldopam hydrochloride] is 5.22 ± 4%; for `Oc1ccc(C2CNCCc3c2cc(O)c(O)c3Cl)cc1` (stereo unspecified) it is 8.73 ± 1.9%.
For the compound `CC(C(=O)O)c1cccc(Oc2ccccc2)c1` (stereo unspecified) [Fenoprofen], the “percent Bodipy-positive cells” value is 8.83% and 16.4% (library stock concentration: 8.3 mM); 19.1 ± 4.6% under setting [2].
With `CC(C(=O)O)c1cccc(Oc2ccccc2)c1` (stereo unspecified) [Fenoprofen Calcium], the “percent Bodipy-positive cells” value was 6.39 ± 0.35% under setting [1] and 17.5 ± 9.7% under setting [2].
For the compound `CC(C(=O)O)c1cccc(Oc2ccccc2)c1` (stereo unspecified) [Fenoprofen calcium salt dihydrate], the “percent Bodipy-positive cells” value stood at 8.16 ± 3.1%.
Consider `O=C(O)CN(CCN(CC(=O)O)CC(=O)O)CC(=O)O.[Na+].[Na+].[Na+]` [Trisodium ethylenediamine tetracetate], for which the “percent Bodipy-positive cells” value under setting [2] came to 12.7 ± 3%.
On the same count and under the same terms, the figure for `CN(C)CCCNC(=O)[C@@H]1C[C@H](CN2CCOCC2)CN(Cc2ccc3ccccc3c2)C1` is 91.8 ± 0.83%.
Take `O=P(O)(O)OC1C(O)C(OP(=O)(O)O)C(O)C(OP(=O)(O)O)C1O` [D-myo-Inositol-1,3,5-triphosphate (sodium salt)]: the “percent Bodipy-positive cells” value under setting [4] was 6.02 ± 1.7%.
